1 molecule from publication PMC2364237 can be followed below.

The assay concerns the target T1, p13suc1 conjugated to agarose beads (UniProt P08463).
T1 sequence: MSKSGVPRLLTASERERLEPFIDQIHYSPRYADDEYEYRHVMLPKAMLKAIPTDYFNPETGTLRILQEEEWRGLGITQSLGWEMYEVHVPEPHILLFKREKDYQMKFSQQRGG
Briefly: pull-down; p13suc1-agarose incubated with extracts of transfected 293T cells; blotted with anti-FRS2; only the target purified.

Results are given in words; binding and its absence hold for the method and conditions named. In cells and extracts the contact can be indirect. Some entries that bind do so weakly or less than the wild type.

B1: SNT1/FRS2 adaptor protein (endogenous) (protein, UniProt Q8WU20 1-508)
chain: MGSCCSCPDKDTVPDNHRNKFKVINVDDDGNELGSGIMELTDTELILYTRKRDSVKWHYLCLRRYGYDSNLFSFESGRRCQTGQGIFAFKCARAEELFNMLQEIMQNNSINVVEEPVVERNNHQTELEVPRTPRTPTTPGFAAQNLPNGYPRYPSFGDASSHPSSRHPSVGSARLPSVGEESTHPLLVAEEQVHTYVNTTGVQEERKNRTSVHVPLEARVSNAESSTPKEEPSSIEDRDPQILLEPEGVKFVLGPTPVQKQLMEKEKLEQLGRDQVSGSGANNTEWDTGYDSDERRDAPSVNKLVYENINGLSIPSASGVRRGRLTSTSTSDTQNINNSAQRRTALLNYENLPSLPPVWEARKLSRDEDDNLGPKTPSLNGYHNNLDPMHNYVNTENVTVPASAHKIEYSRRRDCTPTVFNFDIRRPSLEHRQLNYIQVDLEGGSDSDNPQTPKTPTTPLPQTPTRRTELYAVIDIERTAAMSNLQKALPRDDGTSRKTRHNSTDLPM
Take B1: the binding result was “binds”.
